# The other results are listed elsewhere or left out.
# Tests used:
# Assay in all cases: glycan array binding signal (z-score within array); higher = stronger binding
# Settings in all cases: glycan notation: IUPAC condensed, linker removed
# [1] = molecular target: Gal3S(b1-4)GlcNAc6S
# Procedure, shortened: (§1)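 Negative Z-scores can be read as non-binding. The Z-score is calculated within each array and then averaged across arrays of one protein sequence at different concentrations or buffers and across linkers. Arrays, 3228 in all, were curated from the Consortium for Functional Glycomics database and kept only where the protein sequence was available.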
# [2] = molecular target: Gal3S(b1-4)[Fuc(a1-3)]Glc
# Procedure, shortened: as §1
# [3] = molecular target: Gal3S4S(b1-4)GlcNAc
# Procedure, shortened: as §1
# [4] = molecular target: Gal3S6S(b1-4)GlcNAc
# Procedure, shortened: as §1
# [5] = molecular target: Gal3S6S(b1-4)GlcNAc6S
# Procedure, shortened: as §1
# [6] = molecular target: Gal4S(b1-4)GlcNAc
# Procedure, shortened: as §1
# [7] = molecular target: Gal4S6S(b1-4)GlcNAc
# Procedure, shortened: as §1
# [8] = molecular target: Gal6S(b1-4)Glc
# Procedure, shortened: as §1
# [9] = molecular target: Gal6S(b1-4)Glc6S
# Procedure, shortened: as §1
# [10] = molecular target: Gal6S(b1-4)GlcNAc
# Procedure, shortened: as §1
# [11] = molecular target: Gal6S(b1-4)GlcNAc6S
# Procedure, shortened: as §1
# [12] = molecular target: GalNAc(a1-3)Gal
# Procedure, shortened: as §1
# [13] = molecular target: GalNAc(a1-3)GalNAc
# Procedure, shortened: as §1
# [14] = molecular target: GalNAc(b1-3)Gal
# Procedure, shortened: as §1
# [15] = molecular target: GalNAc(b1-3)Gal(a1-4)Gal(b1-4)GlcNAc
# Procedure, shortened: as §1
# [16] = molecular target: GalNAc(b1-3)GalNAc
# Procedure, shortened: as §1
# [17] = molecular target: GalNAc(b1-4)GlcNAc
# Procedure, shortened: as §1
# [18] = molecular target: Glc(a1-4)Glc
# Procedure, shortened: as §1
# [19] = molecular target: Glc(a1-6)Glc(a1-6)Glc
# Procedure, shortened: as §1
# [20] = molecular target: Glc(b1-4)Glc
# Procedure, shortened: as §1
# [21] = molecular target: Glc(b1-6)Glc
# Procedure, shortened: as §1
# [22] = molecular target: GlcA(b1-3)Gal
# Procedure, shortened: as §1
# [23] = molecular target: GlcA(b1-3)GlcNAc
# Procedure, shortened: as §1
# [24] = molecular target: GlcA(b1-6)Gal
# Procedure, shortened: as §1
# [25] = molecular target: GlcNAc(a1-3)Gal(b1-4)GlcNAc
# Procedure, shortened: as §1
# [26] = molecular target: GlcNAc(a1-6)Gal(b1-4)GlcNAc
# Procedure, shortened: as §1
# [27] = molecular target: GlcNAc(b1-2)Gal(b1-3)GalNAc
# Procedure, shortened: as §1
# [28] = molecular target: GlcNAc(b1-2)Man(a1-3)[GlcNAc(b1-2)Man(a1-6)]Man(b1-4)GlcNAc(b1-4)GlcNAc
# Procedure, shortened: as §1
# [29] = molecular target: GlcNAc(b1-3)Gal
# Procedure, shortened: as §1
# [30] = molecular target: GlcNAc(b1-3)Gal(b1-3)GalNAc
# Procedure, shortened: as §1
# [31] = molecular target: GlcNAc(b1-3)Gal(b1-4)Glc
# Procedure, shortened: as §1
# [32] = molecular target: GlcNAc(b1-3)Gal(b1-4)GlcNAc
# Procedure, shortened: as §1
# [33] = molecular target: GlcNAc(b1-3)Gal(b1-4)GlcNAc(b1-3)Gal(b1-4)GlcNAc
# Procedure, shortened: as §1
# [34] = molecular target: GlcNAc(b1-3)GalNAc
# Procedure, shortened: as §1
# [35] = molecular target: GlcNAc(b1-3)Man
# Procedure, shortened: as §1
# [36] = molecular target: GlcNAc(b1-3)[GlcNAc(b1-4)][GlcNAc(b1-6)]GlcNAc
# Procedure, shortened: as §1
# [37] = molecular target: GlcNAc(b1-3)[GlcNAc(b1-6)]Gal(b1-4)GlcNAc
# Procedure, shortened: as §1
# [38] = molecular target: GlcNAc(b1-3)[GlcNAc(b1-6)]GalNAc
# Procedure, shortened: as §1
# [39] = molecular target: GlcNAc(b1-4)Gal(b1-4)GlcNAc
# Procedure, shortened: as §1
# [40] = molecular target: GlcNAc(b1-4)GlcNAc
# Procedure, shortened: as §1
# [41] = molecular target: GlcNAc(b1-4)GlcNAc(b1-4)GlcNAc
# Procedure, shortened: as §1
# [42] = molecular target: GlcNAc(b1-4)GlcNAc(b1-4)GlcNAc(b1-4)GlcNAc(b1-4)GlcNAc
# Procedure, shortened: as §1
# [43] = molecular target: GlcNAc(b1-4)GlcNAc(b1-4)GlcNAc(b1-4)GlcNAc(b1-4)GlcNAc(b1-4)GlcNAc
# Procedure, shortened: as §1
# [44] = molecular target: GlcNAc(b1-4)[GlcNAc(b1-6)]GalNAc
# Procedure, shortened: as §1
# [45] = molecular target: GlcNAc(b1-6)Gal(b1-4)GlcNAc
# Procedure, shortened: as §1
binder,measurement,setting,value
"TbCVNHOa (Tuber borchii), Q5MK11 (protein) MSYADSSRNAVLTNGGRTLRAECRNADGNWVTSELDLDTCIGNPNGFLGWGMQNFSHSSEDIKLEEGGRKLTCRPKTVDGGFRERQGIDLNRIQNVNGRLVFQ",glycan array binding signal (z-score),[1],0.448
same,glycan array binding signal (z-score),[2],-0.266
same,glycan array binding signal (z-score),[3],0.626
same,glycan array binding signal (z-score),[4],-0.13
same,glycan array binding signal (z-score),[5],-0.004
same,glycan array binding signal (z-score),[6],0.199
same,glycan array binding signal (z-score),[7],-0.13
same,glycan array binding signal (z-score),[8],-0.073
same,glycan array binding signal (z-score),[9],0.139
same,glycan array binding signal (z-score),[10],0.146
same,glycan array binding signal (z-score),[11],0.195
same,glycan array binding signal (z-score),[12],0.604
same,glycan array binding signal (z-score),[13],-0.403
same,glycan array binding signal (z-score),[14],0.821
same,glycan array binding signal (z-score),[15],0.396
same,glycan array binding signal (z-score),[16],0.171
same,glycan array binding signal (z-score),[17],-0.067
same,glycan array binding signal (z-score),[18],-0.277
same,glycan array binding signal (z-score),[19],0.202
same,glycan array binding signal (z-score),[20],-0.266
same,glycan array binding signal (z-score),[21],1.09
same,glycan array binding signal (z-score),[22],-0.018
same,glycan array binding signal (z-score),[23],-0.325
same,glycan array binding signal (z-score),[24],0.061
same,glycan array binding signal (z-score),[25],-0.179
same,glycan array binding signal (z-score),[26],-0.249
same,glycan array binding signal (z-score),[27],-0.099
same,glycan array binding signal (z-score),[28],-0.125
same,glycan array binding signal (z-score),[29],0.021
same,glycan array binding signal (z-score),[30],0.734
same,glycan array binding signal (z-score),[31],-0.284
same,glycan array binding signal (z-score),[32],-0.384
same,glycan array binding signal (z-score),[33],-0.324
same,glycan array binding signal (z-score),[34],-0.057
same,glycan array binding signal (z-score),[35],-0.555
same,glycan array binding signal (z-score),[36],-0.314
same,glycan array binding signal (z-score),[37],0.219
same,glycan array binding signal (z-score),[38],-0.235
same,glycan array binding signal (z-score),[39],-0.133
same,glycan array binding signal (z-score),[40],-0.345
same,glycan array binding signal (z-score),[41],-0.236
same,glycan array binding signal (z-score),[42],-0.615
same,glycan array binding signal (z-score),[43],-0.762
same,glycan array binding signal (z-score),[44],-0.075
same,glycan array binding signal (z-score),[45],-0.101

# 3 records picked at random from those above:
binder,measurement,setting,value
"TbCVNHOa (Tuber borchii), Q5MK11 (protein) MSYADSSRNAVLTNGGRTLRAECRNADGNWVTSELDLDTCIGNPNGFLGWGMQNFSHSSEDIKLEEGGRKLTCRPKTVDGGFRERQGIDLNRIQNVNGRLVFQ",glycan array binding signal (z-score),[28],-0.125
same,glycan array binding signal (z-score),[35],-0.555
same,glycan array binding signal (z-score),[31],-0.284

# Source: the supplement of paper PMC8728848
